According to article PMC7297996, “Alzheimer’s disease-related dysregulation of mRNA translation causes key pathological features with ageing” (Translational Psychiatry, 2020):
Results are given in words; binding and its absence hold for the method and conditions named. Binding seen in cells or lysates may run through a third protein. Some binding calls cover weakened binding; strength is not graded here.

The chains behind the UniProt entries cited, without tags or fusion partners.
UniProt Q5SQX6: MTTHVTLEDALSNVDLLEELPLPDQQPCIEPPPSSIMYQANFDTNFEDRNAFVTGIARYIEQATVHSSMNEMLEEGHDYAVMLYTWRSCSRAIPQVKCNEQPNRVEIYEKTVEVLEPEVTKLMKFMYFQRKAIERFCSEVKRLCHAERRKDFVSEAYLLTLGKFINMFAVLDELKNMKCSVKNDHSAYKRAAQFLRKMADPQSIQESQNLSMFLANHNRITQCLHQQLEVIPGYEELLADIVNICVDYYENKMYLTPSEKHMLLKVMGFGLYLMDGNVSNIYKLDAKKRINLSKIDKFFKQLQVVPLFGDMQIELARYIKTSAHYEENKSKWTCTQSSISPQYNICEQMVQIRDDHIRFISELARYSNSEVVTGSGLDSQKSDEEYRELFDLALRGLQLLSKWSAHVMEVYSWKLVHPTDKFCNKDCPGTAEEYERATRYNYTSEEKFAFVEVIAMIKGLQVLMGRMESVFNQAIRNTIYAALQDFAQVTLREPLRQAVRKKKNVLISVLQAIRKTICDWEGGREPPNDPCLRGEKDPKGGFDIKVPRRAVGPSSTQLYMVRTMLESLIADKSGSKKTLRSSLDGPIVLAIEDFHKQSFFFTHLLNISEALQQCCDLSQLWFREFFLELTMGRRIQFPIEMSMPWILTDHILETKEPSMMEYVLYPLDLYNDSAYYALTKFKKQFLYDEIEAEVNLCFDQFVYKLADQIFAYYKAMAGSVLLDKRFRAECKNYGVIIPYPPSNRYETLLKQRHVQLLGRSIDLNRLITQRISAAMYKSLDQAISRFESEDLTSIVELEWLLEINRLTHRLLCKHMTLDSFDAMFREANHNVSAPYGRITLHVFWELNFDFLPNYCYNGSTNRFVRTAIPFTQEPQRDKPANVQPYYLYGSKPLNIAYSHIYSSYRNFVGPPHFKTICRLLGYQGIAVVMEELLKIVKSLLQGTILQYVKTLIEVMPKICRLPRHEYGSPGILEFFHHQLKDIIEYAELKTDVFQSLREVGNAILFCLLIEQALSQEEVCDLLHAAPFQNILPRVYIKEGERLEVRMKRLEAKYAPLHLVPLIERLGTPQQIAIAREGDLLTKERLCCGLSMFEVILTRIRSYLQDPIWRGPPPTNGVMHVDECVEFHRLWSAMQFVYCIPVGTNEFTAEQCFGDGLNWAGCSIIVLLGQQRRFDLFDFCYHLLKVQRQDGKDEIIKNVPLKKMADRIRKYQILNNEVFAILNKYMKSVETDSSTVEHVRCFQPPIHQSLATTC
UniProt P63073: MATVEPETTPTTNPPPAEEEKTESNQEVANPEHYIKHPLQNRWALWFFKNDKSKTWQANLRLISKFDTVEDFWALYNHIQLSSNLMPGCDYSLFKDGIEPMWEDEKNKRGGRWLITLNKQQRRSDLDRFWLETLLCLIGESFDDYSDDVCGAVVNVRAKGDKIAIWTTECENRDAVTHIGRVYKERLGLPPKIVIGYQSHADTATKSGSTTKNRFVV

How the values were obtained:
[1] = target: cytoplasmic FMRP-interacting protein 2 (CYFIP2), mouse (mouse (endogenous in hippocampus)) (UniProt Q5SQX6); experiment: co-IP; crude synaptosomal fraction of mouse hippocampus; anti-CYFIP2 antibody on Protein A Dynabeads, overnight at 4 °C; immunoblot
[2] = target: cytoplasmic FMRP-interacting protein 2 (CYFIP2), mouse (mouse (endogenous in hippocampus)) (UniProt Q5SQX6); experiment: co-IP; total mouse hippocampus homogenate in IP buffer (50 mM Tris pH 7.4, 150 mM NaCl, 1% Triton X-100); anti-CYFIP2 antibody on Protein A Dynabeads, overnight at 4 °C; immunoblot

binding [1]: binds | binding [2]: binds
Substance: eukaryotic initiation factor 4E (eIF4E), mouse (from UniProt P63073 1-217)
